Source: publication PMC9988257
No constants are given. Whether binding was seen depends on the method and setting. In cells and extracts the contact can be indirect. Some results given as binding are weak or reduced against the parent protein; the word gives no strength. For some assays here: Tags and fused reporters may be left off the sequences shown.

Chains of the proteins cited; added tags and fusions are not shown.
UniProt Q6KAR6: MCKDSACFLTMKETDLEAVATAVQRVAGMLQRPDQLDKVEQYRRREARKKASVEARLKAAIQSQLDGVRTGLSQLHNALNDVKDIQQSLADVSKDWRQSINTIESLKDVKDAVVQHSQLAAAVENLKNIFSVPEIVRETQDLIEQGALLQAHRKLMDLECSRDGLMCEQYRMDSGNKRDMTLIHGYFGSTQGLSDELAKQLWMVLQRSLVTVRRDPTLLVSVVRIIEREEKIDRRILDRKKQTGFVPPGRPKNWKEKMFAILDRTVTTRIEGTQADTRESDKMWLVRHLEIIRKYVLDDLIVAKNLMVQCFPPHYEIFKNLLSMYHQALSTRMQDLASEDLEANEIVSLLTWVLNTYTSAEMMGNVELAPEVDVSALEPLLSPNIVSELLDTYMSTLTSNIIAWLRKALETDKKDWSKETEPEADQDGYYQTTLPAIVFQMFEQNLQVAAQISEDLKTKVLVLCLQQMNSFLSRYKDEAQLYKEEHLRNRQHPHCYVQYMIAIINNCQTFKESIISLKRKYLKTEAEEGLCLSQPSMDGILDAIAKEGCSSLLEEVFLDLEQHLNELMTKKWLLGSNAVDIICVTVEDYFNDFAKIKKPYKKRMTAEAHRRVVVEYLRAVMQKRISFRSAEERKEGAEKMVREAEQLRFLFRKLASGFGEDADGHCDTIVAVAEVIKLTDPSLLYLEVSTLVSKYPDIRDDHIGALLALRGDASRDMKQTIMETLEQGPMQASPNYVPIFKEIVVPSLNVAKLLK
UniProt Q99104: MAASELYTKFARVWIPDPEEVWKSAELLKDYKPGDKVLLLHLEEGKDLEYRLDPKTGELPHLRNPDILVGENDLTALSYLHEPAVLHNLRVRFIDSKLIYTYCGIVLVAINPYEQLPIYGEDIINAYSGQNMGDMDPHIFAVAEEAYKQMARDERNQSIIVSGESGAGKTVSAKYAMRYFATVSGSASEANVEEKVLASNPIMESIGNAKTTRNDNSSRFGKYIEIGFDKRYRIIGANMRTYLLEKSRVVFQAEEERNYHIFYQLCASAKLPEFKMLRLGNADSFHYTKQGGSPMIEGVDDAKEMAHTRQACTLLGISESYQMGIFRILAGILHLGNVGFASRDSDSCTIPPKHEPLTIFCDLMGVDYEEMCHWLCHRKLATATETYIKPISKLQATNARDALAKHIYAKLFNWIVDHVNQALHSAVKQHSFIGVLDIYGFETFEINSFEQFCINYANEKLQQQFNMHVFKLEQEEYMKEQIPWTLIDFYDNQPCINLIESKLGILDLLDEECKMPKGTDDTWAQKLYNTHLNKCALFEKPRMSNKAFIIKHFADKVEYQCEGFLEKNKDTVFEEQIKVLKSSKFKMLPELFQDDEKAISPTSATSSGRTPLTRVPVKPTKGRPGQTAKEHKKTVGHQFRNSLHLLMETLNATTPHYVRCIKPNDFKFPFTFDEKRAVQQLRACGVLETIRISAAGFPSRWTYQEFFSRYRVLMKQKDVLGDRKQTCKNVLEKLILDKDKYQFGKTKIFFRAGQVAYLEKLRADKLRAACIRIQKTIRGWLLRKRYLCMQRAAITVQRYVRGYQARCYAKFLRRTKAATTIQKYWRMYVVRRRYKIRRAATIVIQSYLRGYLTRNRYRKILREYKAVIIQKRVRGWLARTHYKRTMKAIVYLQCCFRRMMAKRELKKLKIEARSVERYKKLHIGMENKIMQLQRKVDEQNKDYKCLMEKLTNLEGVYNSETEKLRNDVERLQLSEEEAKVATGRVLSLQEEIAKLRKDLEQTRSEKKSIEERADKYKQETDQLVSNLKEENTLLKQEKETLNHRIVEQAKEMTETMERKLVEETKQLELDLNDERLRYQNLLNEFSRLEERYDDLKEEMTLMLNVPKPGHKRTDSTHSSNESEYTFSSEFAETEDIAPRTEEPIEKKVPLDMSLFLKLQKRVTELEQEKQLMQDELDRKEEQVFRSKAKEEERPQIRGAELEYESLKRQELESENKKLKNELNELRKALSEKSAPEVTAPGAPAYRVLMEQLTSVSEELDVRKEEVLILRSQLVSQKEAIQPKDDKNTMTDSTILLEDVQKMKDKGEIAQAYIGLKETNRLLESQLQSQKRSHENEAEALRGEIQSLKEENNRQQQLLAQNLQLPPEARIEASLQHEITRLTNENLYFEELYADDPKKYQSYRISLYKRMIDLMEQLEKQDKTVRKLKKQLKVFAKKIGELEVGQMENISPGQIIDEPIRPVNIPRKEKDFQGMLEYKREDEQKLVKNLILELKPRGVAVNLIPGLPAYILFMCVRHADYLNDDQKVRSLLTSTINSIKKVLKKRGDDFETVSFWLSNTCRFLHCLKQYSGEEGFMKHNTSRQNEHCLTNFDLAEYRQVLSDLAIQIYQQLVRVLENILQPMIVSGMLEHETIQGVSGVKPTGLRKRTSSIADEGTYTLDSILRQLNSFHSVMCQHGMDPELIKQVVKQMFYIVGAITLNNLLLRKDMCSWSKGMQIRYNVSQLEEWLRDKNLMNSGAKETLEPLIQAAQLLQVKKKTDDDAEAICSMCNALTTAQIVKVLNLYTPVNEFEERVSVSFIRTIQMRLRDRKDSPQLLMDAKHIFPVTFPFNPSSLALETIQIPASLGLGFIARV
UniProt P97479: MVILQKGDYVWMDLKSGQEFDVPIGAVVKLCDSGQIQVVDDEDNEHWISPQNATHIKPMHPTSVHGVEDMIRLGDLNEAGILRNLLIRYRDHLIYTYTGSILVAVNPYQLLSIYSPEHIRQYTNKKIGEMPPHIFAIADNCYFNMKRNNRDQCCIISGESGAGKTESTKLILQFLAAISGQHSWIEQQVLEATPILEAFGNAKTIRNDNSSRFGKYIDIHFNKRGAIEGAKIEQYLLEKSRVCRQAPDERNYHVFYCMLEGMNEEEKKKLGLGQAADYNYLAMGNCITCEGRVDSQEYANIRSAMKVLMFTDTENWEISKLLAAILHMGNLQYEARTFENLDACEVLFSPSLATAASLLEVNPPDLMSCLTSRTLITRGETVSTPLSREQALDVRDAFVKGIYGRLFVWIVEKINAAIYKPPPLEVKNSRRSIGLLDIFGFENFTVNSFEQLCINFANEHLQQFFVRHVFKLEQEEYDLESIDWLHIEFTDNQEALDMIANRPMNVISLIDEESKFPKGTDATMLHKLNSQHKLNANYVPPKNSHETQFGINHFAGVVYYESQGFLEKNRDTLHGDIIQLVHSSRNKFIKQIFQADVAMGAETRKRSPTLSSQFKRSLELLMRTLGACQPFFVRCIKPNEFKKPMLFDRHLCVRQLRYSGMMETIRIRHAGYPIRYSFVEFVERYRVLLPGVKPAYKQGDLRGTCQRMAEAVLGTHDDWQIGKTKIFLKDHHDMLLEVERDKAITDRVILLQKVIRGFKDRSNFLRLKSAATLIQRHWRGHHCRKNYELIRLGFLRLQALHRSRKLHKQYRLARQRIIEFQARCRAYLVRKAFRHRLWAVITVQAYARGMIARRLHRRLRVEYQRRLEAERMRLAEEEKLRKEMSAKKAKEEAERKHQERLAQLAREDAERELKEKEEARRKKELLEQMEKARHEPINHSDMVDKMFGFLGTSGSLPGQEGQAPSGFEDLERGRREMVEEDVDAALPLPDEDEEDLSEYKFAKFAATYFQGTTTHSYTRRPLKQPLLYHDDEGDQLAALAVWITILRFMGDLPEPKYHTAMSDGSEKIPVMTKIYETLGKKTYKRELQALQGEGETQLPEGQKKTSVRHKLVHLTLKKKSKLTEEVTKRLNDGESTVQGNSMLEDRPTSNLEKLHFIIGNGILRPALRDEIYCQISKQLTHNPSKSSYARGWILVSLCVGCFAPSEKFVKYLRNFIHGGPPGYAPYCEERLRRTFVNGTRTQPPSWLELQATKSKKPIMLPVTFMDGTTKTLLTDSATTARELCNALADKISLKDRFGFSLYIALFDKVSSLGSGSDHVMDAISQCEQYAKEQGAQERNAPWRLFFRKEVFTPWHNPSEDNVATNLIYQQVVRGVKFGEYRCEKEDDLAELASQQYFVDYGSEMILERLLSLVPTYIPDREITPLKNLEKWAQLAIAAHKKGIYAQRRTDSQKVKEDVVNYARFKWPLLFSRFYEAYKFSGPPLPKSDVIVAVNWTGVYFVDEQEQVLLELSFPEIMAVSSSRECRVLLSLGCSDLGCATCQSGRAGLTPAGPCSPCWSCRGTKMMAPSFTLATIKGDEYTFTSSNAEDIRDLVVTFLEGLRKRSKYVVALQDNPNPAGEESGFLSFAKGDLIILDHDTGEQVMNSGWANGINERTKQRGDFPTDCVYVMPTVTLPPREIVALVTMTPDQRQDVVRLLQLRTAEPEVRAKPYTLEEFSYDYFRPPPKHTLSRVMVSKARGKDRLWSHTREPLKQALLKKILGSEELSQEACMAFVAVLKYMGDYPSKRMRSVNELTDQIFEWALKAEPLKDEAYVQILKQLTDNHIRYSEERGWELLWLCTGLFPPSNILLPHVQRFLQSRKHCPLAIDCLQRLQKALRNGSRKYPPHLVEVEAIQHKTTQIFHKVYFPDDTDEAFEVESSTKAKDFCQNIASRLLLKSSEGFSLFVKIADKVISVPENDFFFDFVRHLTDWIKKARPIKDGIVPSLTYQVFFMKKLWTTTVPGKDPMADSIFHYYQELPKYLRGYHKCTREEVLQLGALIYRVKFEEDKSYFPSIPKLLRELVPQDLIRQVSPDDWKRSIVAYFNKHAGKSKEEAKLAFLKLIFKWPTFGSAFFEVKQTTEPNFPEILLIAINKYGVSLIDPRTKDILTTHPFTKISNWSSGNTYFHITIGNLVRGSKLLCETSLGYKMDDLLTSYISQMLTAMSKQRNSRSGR
UniProt Q3TPX4: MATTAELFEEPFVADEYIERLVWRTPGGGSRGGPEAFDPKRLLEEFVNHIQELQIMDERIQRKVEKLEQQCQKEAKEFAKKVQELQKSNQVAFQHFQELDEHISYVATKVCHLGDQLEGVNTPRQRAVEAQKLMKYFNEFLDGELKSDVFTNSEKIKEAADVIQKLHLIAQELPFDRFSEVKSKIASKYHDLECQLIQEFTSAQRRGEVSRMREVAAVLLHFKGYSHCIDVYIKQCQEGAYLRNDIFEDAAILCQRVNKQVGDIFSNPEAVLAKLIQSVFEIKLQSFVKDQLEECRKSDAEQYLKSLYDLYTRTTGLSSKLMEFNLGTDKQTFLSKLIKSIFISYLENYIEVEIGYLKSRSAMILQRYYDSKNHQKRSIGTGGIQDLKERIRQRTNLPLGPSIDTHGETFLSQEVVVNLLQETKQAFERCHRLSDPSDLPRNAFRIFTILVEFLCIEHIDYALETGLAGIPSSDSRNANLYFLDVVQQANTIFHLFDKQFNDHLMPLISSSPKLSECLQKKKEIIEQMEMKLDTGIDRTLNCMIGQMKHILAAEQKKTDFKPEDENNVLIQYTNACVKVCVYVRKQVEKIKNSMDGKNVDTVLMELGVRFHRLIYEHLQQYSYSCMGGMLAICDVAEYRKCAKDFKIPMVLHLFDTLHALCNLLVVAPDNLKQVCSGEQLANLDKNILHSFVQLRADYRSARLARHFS
UniProt Q9UPT5: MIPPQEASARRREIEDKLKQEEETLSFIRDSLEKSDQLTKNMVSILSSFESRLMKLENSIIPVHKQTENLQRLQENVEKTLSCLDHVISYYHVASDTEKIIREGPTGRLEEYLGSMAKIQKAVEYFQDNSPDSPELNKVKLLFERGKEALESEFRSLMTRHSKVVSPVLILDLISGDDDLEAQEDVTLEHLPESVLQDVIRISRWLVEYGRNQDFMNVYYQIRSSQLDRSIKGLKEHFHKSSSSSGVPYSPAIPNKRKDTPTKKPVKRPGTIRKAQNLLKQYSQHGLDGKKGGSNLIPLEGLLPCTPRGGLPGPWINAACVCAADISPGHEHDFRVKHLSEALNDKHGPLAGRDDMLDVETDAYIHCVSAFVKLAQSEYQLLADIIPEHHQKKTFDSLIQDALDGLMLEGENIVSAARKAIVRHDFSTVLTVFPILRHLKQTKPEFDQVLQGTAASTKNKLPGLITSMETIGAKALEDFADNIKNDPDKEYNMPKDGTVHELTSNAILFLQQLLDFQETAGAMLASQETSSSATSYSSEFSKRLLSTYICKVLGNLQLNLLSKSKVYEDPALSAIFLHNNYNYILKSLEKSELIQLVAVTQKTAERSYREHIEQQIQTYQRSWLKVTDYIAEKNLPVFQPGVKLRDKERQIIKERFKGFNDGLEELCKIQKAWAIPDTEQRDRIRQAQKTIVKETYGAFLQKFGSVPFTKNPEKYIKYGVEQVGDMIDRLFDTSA

Columns and labels:
[1] = molecular target: T1, melanophilin (endogenous, MIN6 cells) (mouse (endogenous in MIN6)) (UniProt Q91V27); test: co-IP; endogenous proteins; MIN6 cell extracts immunoprecipitated with rabbit anti-melanophilin antibody or control IgG and immunoblotted (Figure 3C; control siRNA of Figure 4B)
T1 sequence: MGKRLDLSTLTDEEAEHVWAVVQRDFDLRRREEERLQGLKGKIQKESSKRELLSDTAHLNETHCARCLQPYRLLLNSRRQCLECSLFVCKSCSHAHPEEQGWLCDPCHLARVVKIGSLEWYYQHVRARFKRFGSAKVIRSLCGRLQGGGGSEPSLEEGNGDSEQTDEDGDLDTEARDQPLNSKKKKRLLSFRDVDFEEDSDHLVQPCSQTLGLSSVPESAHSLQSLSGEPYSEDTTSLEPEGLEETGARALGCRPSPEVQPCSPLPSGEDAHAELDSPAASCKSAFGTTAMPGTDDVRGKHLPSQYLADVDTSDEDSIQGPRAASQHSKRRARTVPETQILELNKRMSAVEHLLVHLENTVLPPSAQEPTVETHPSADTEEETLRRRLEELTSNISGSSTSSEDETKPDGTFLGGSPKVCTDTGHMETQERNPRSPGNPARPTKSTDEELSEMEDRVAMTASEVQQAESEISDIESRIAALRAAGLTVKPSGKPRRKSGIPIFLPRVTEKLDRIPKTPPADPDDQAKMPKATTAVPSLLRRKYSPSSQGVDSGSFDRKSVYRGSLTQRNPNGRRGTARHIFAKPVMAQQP

[2] = molecular target: T2, FLAG-melanophilin (expressed in MIN6 cells) (mouse) (UniProt Q91V27); test: co-IP; MIN6 cells expressing FLAG-tagged melanophilin or exophilin-8; immunoprecipitated with anti-FLAG antibody; immunoblotted for endogenous proteins
T2 sequence: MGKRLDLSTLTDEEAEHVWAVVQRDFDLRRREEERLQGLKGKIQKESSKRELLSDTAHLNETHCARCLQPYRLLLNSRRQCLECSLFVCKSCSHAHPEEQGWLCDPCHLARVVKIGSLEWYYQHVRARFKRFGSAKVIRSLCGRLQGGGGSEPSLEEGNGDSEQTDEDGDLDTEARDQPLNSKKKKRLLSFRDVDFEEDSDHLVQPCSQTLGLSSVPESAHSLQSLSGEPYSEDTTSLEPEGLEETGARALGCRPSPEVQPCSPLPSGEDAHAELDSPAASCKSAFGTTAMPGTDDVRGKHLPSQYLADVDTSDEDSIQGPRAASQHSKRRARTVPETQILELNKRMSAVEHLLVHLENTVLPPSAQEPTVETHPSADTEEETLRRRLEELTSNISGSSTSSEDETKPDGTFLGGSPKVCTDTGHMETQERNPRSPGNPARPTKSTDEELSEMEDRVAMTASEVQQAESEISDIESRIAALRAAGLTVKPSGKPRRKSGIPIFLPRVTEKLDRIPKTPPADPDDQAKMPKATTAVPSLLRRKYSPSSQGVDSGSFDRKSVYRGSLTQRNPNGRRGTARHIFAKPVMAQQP

[3] = molecular target: T3, FLAG-tagged exophilin-8 (expressed in MIN6 cells) (mouse) (UniProt Q8K3I4); test: as above
T3 sequence: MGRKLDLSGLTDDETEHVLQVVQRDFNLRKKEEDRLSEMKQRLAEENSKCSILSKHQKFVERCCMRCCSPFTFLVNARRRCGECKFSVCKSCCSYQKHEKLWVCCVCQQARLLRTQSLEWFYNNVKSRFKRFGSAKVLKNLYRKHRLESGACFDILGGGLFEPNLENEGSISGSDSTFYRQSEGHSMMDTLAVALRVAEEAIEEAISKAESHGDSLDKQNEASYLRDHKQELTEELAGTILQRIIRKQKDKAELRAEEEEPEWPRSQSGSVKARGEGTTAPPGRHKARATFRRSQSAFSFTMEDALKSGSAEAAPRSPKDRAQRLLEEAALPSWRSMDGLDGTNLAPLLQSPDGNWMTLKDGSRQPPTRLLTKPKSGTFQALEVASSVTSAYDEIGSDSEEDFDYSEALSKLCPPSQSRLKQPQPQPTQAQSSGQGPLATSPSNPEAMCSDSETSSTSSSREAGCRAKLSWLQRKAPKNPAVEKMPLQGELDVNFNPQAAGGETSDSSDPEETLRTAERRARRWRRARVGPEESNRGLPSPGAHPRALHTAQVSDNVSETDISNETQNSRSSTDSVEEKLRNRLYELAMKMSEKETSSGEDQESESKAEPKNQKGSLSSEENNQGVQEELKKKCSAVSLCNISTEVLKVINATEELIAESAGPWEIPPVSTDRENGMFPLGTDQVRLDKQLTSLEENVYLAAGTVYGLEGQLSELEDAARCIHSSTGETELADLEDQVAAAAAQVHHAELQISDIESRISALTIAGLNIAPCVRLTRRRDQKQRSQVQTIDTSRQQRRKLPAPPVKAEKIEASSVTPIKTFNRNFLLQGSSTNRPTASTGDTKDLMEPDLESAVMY

[4] = molecular target: T4, mCherry-fused melanophilin (expressed in HEK293A cells) (mouse) (UniProt Q91V27); test: co-IP; visible immunoprecipitation (VIP) assay: HEK293A cells co-transfected with mCherry-fused effector and EGFP-fused exocyst component; lysates precipitated with mCherry-nanobody-bound glutathione-Sepharose beads; EGFP and mCherry fluorescence on beads seen by confocal microscopy
T4 sequence: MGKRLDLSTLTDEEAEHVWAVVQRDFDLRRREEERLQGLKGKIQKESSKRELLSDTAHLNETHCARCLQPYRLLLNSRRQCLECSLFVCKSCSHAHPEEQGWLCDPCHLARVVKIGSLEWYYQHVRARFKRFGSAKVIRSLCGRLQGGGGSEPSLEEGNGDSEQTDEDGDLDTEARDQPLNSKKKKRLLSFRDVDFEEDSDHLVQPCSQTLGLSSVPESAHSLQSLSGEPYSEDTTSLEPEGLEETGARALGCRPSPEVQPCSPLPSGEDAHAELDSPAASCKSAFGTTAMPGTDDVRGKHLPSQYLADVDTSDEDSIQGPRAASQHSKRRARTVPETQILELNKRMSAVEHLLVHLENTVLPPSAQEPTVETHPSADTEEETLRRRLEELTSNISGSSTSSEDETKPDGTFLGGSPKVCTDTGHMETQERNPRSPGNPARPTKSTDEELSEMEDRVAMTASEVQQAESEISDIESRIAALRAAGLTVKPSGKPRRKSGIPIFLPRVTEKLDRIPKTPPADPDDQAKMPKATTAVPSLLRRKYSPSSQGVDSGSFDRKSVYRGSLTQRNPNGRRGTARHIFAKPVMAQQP

How did the binding [1] turn out when “SEC6 (endogenous, MIN6 cells) (from UniProt Q6KAR6 1-755)” was run?
The binding was “binds”.

Which binding [2] does the source give for “myosin-Va (endogenous, MIN6 cells) (from UniProt Q99104 1-1853)” here?
Its binding is “binds”.

Which binding [3] does the source give for “myosin-VIIa (endogenous, MIN6 cells) (from UniProt P97479 1-2215)” here?
Its binding is “binds”.

“SEC10 (endogenous, MIN6 cells) (from UniProt Q3TPX4 1-708)” was tested. Which binding [1] did it give?
Its binding is “binds”.

For “EGFP-fused EXO70 (human, expressed in HEK293A cells) (from UniProt Q9UPT5 1-735)”, which binding [4] is on record?
The binding was “binds”.
